In paper PMC5424160 one finds binding data, which are given here for two molecules.

The chains behind the UniProt entries cited, without tags or fusion partners.
UniProt P01106: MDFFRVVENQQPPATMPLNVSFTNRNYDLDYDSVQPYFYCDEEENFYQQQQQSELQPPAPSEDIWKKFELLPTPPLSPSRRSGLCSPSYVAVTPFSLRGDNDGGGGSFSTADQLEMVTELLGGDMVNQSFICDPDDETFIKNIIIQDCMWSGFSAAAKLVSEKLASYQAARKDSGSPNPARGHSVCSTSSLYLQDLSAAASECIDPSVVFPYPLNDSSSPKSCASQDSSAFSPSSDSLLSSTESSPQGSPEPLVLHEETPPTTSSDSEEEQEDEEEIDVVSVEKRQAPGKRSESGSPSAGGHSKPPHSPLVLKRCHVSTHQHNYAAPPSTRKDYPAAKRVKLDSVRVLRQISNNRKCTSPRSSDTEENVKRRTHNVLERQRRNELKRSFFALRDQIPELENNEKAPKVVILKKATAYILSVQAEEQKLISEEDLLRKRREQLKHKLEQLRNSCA
UniProt O60563: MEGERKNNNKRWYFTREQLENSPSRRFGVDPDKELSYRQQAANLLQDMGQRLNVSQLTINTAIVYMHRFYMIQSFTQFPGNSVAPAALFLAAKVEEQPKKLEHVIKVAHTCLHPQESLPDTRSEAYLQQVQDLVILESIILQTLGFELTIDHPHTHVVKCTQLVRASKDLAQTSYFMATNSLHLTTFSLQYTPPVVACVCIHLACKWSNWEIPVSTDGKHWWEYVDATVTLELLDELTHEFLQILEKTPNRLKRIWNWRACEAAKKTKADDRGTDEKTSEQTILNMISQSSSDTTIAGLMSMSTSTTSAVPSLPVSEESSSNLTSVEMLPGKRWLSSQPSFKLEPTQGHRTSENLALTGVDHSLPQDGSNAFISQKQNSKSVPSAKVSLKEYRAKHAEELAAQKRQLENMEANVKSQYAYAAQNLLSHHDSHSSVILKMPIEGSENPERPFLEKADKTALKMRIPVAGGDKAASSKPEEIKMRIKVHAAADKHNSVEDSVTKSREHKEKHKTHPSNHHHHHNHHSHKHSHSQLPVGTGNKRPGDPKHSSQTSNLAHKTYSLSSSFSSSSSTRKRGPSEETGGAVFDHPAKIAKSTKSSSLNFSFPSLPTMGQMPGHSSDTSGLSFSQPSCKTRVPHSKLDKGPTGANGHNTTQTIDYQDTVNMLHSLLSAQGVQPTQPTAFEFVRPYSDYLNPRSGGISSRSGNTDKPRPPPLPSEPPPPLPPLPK
UniProt P61244: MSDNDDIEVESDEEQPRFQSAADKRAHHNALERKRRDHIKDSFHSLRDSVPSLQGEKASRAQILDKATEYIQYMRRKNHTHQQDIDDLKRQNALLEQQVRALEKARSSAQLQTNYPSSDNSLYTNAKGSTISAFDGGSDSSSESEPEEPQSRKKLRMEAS
UniProt P50750: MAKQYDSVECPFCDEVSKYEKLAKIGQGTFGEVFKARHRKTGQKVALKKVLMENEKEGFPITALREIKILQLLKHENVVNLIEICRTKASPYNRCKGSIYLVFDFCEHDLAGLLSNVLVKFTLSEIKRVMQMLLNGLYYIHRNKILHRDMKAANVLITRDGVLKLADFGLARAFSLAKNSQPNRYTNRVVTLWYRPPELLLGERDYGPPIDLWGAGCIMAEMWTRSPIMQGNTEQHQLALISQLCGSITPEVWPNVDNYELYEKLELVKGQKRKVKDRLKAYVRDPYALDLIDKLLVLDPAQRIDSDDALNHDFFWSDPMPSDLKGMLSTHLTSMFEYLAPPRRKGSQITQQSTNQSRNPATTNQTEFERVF

No constants are given. Whether binding was seen depends on the method and setting. For part of these data: Binding seen in cells or lysates may run through a third protein. Some results given as binding are weak or reduced against the parent protein; the word gives no strength. Tags and fused reporters may be left off the sequences shown.

Test [1] deals with HA-MYC (UniProt P01106). Put plainly: co-IP; HEK293T cells co-transfected with the two tagged proteins; IP with anti-Flag or anti-HA, immunoblot; low-salt IP buffer (0.5% NP-40, 20 mM HEPES pH 7.5, 150 mM NaCl, 2 mM EDTA).
Test [2] addresses HA-CycT1 (UniProt O60563). The description is as above.
The target in test [3] is His-MYC (UniProt P01106). Put plainly: native gel or EMSA; supershift EMSA: purified His-MYC, His-MAX and His-Menin mixed in EMSA buffer (50 mM HEPES, 150 mM NaCl, 0.2% BSA, 0.02% Tween 20, 0.5 mM MgCl2, 100 uM DTT) with biotinylated E-box DNA, with or without anti-Menin antibody; room temperature, 5% gel; both purified.
Test [4] deals with GST-MAX (UniProt P61244). The test can be described thus: pull-down; GST pull-down: purified GST fused protein as bait and purified His-tag protein; pull-down buffer 150 mM NaCl, 50 mM Tris pH 7.5, 0.1% NP-40, 5 mM DTT; western blot; both purified.
The target in test [5] is GST-CDK9 (UniProt P50750). The test is described as above.
Test [6] addresses GST-MYC (UniProt P01106). The test is described as above.

B1: Flag-Menin (protein, UniProt O00255 1-610)
chain: MGLKAAQKTLFPLRSIDDVVRLFAAELGREEPDLVLLSLVLGFVEHFLAVNRVIPTNVPELTFQPSPAPDPPGGLTYFPVADLSIIAALYARFTAQIRGAVDLSLYPREGGVSSRELVKKVSDVIWNSLSRSYFKDRAHIQSLFSFITGTKLDSSGVAFAVVGACQALGLRDVHLALSEDHAWVVFGPNGEQTAEVTWHGKGNEDRRGQTVNAGVAERSWLYLKGSYMRCDRKMEVAFMVCAINPSIDLHTDSLELLQLQQKLLWLLYDLGHLERYPMALGNLADLEELEPTPGRPDPLTLYHKGIASAKTYYRDEHIYPYMYLAGYHCRNRNVREALQAWADTATVIQDYNYCREDEEIYKEFFEVANDVIPNLLKEAASLLEAGEERPGEQSQGTQSQGSALQDPECFAHLLRFYDGICKWEEGSPTPVLHVGWATFLVQSLGRFEGQVRQKVRIVSREAEAAEAEEPWGEEAREGRRRGPRRESKPEEPPPPKKPALDKGLGTGQGAVSGPPRKPPGTVAGTARGPEGGSTAQVPAPTASPPPEGPVLTFQSEKMKGMKELLVATKINSSAIKLQLTAQSQVQMKKQKVSTPSDYTLSFLKRQRKGL
For B1, the binding result in test [1] and in test [2] was “binds” throughout.

B2: His-Menin (protein, UniProt O00255 1-610)
chain: B1 chain
B2: the binding result in test [3] is listed as “binds”; in test [4], “no binding”; in test [5], “no binding”; in test [6], “binds”.
